These are yes or no findings as the source states them, for the method shown. For some assays here: Binding seen in cells or lysates may run through a third protein. Some entries that bind do so weakly or less than the wild type. For some assays here: Sequences can lack the tags named with a protein. Values belong to the binder of their own block, whether it stands above or below them.
Columns and labels:
[1] = target: T1, CD27 protein (ELISA, form not stated) (UniProt P26842); test: ELISA (FIG. 6A), against negative BSA control
T1 sequence (looked up): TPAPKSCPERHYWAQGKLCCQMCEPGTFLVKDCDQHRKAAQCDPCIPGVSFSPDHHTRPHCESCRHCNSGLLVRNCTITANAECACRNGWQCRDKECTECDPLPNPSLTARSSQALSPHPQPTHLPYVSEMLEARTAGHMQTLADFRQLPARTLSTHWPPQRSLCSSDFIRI

By UniProt entry, the sequences of proteins in these tests, tags left out. Where a name states a change or a piece, a line headed by the entry shows the natural chain unless it says otherwise. Residues count along the entry.
UniProt Q02383: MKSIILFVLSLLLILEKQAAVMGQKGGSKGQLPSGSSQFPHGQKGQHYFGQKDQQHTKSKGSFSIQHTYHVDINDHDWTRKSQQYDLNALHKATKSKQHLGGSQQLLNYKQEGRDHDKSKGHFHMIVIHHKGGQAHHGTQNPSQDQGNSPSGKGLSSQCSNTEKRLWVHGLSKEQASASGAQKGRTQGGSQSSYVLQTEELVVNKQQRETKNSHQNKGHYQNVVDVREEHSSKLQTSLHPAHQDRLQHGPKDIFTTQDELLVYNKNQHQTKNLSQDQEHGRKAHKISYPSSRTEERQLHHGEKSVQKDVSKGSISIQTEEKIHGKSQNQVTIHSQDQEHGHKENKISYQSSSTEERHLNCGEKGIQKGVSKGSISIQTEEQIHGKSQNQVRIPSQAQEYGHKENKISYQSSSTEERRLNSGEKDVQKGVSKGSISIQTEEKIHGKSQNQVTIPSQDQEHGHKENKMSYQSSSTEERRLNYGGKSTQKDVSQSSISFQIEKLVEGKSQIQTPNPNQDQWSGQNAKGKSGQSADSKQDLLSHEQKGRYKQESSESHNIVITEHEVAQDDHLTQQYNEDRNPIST
UniProt P41272, residues 24-250: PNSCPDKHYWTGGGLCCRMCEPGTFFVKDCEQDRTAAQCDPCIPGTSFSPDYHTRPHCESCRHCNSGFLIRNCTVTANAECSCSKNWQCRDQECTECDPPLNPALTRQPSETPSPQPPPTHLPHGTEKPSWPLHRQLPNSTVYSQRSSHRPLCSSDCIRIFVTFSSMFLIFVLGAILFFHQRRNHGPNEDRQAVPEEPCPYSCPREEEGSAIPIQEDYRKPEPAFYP

[2] = target: human SEMG2 full-length protein (human) (UniProt Q02383); test: blocking ELISA: SEMG2 on the plate, CD27-Fc added with 10 µg/mL antibody
[3] = target: T2, SEMG2(497-509) polypeptide … (human); test: ELISA on immobilized SEMG2 fragments
T2 sequence (peptide): QIEKLVEGKSQIQ

[4] = target: T2, SEMG2(497-509) polypeptide … (human); test: ELISA on coated SEMG2 antigens (FIG. 19)
[5] = target: mouse CD27 (expressed in HEK293 cells) (mouse) (UniProt P41272); test: co-immunoprecipitation (FIG. 4, right panel)
[6] = target: human CD27 (HA-tagged, expressed in HEK293 cells) (human) (UniProt P26842); test: co-immunoprecipitation, HEK293 co-transfection
[7] = target: mouse CD27 (expressed in HEK293 cells) (mouse) (UniProt P41272); test: co-immunoprecipitation, HEK293 co-transfection
[8] = target: human CD27 (HA-tagged, expressed in HEK293 cells) (human) (UniProt P26842); test: co-immunoprecipitation (FIG. 4, left panel)

binding [1]: binds
Binder: QIEKLVEGKSQIQ (coupled to BSA (site of coupling not stated)) [BSA-conjugated human SEMG2 (497-509) polypeptide]

binding [2]: binds
binding [3]: binds
binding [4]: binds
B1: MM08 (antibody, IgG1, V domains shown)
VH: QVQLQQPGAELVRPGASVKLSCKSSDYTFTRYWMNWVKQRPGQGLEWIGMIDPSDSETHHNQMFKDKATLTVDKSSSTAYMQLSSLTSEDSAVYFCARYLGGKEGSFDYWGQGTTLTVSS
VL: DIVLTQSPSSLAVSAGERVTMSCKSSQSLFNSRTRKNYLAWYQQKPGQSPKLLLYWASTRESGVPDRFTGSGSGTDFTLTISSVKTEDLAVYYCKQSYELPWTFGGGTKLEMKR

binding [5]: binds
binding [6]: binds
binding [7]: binds
binding [8]: binds
Binder: QIEKLVEGKSQIQ (peptide, not shown: large carriers) [SEMG2-P7 (SEMG2(497-509)) fused with GFP]
